PubChem BioAssay AID504764 – Drosophila RNAi Screening Center, 2011
The screen tested about 22,000 reagents; shown is a random part of those that have a named target and a result. In the full data, 403 (1.9%) got an active call. 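Unnormalised raw counts per well; ratio z-scores behind the hit calls and whether each hit raises or lowers signal are not deposited.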 Reagents against one gene are numbered here. Names joined by + are all predicted targets of the reagent. Not stated in the record: the amount of reagent.

- Test: 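Knock-downs that raise or lower a Notch target reporter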 (primary screen)
- Cells: Drosophila Kc167 cells
- Knock-down reagent: long dsRNA against Drosophila genes
- Time to read-out: about 5 days (4 days dsRNA, then 24 h after transfection)
- Treatment: transfection of constitutively active membrane-tethered Notch lacking the extracellular domain, read 24 h later
- Detection: 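Light from a Notch-responsive E(spl)m3 luciferase reporter under active Notch, with control-promoter and no-Notch reporter wells to normalise; raw counts from paired wells a and b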
- Direction: induced reporter light, run 1, well a and induced reporter light, run 1, well b: higher = more light from the Notch target reporter with active Notch; control promoter light, run 1, well a and control promoter light, run 1, well b: higher = more light from the viral control promoter (cell number, transfection, viability); uninduced reporter light, run 1, well a: higher = more light from the Notch target reporter without active Notch
- Active means: 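Wells with low control signal or poorly matching duplicates excluded; duplicates averaged; per source plate, z beyond ±2 for induced/control log2 ratio or beyond ±1.8 for induced/uninduced marks a hit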
- Calls: active = modifier hit (raised or lowered Notch signal); inactive = not a hit

After knock-down of CG15005, the record shows induced reporter light, run 1, well a = 1.07e5; induced reporter light, run 1, well b = 1.21e5; control promoter light, run 1, well a = 1.83e5; control promoter light, run 1, well b = 1.45e5; uninduced reporter light, run 1, well a = 7005; inactive.
alpha-PheRS (Phenylalanyl-tRNA synthetase, alpha-subunit) gave induced reporter light, run 1, well a = 1.29e5; induced reporter light, run 1, well b = 1.43e5; control promoter light, run 1, well a = 1.96e5; control promoter light, run 1, well b = 2.21e5; uninduced reporter light, run 1, well a = 7565; inactive.
For RpS26 (Ribosomal protein S26) the deposit lists induced reporter light, run 1, well a = 5380; induced reporter light, run 1, well b = 8170; control promoter light, run 1, well a = 9005; control promoter light, run 1, well b = 6100; uninduced reporter light, run 1, well a = 470; inactive.
Against Tep4 (Thioester-containing protein 4) the deposit lists induced reporter light, run 1, well a = 43890; induced reporter light, run 1, well b = 33120; control promoter light, run 1, well a = 47620; control promoter light, run 1, well b = 66865; uninduced reporter light, run 1, well a = 2120; inactive.
CG17977 showed induced reporter light, run 1, well a = 2.25e5; induced reporter light, run 1, well b = 2.11e5; control promoter light, run 1, well a = 2.46e5; control promoter light, run 1, well b = 2.12e5; uninduced reporter light, run 1, well a = 15370; inactive.
Silencing of GluRIID (Glutamate receptor IID) resulted in: induced reporter light, run 1, well a = 2.03e5; induced reporter light, run 1, well b = 1.59e5; control promoter light, run 1, well a = 1.97e5; control promoter light, run 1, well b = 1.87e5; uninduced reporter light, run 1, well a = 15160; inactive.
Pex23 (Peroxin 23) #1 gave induced reporter light, run 1, well a = 1.30e5; induced reporter light, run 1, well b = 1.66e5; control promoter light, run 1, well a = 74510; control promoter light, run 1, well b = 82655; uninduced reporter light, run 1, well a = 11950; inactive.
Against Pex23 (Peroxin 23) #2, the values are induced reporter light, run 1, well a = 1.01e5; induced reporter light, run 1, well b = 1.06e5; control promoter light, run 1, well a = 1.19e5; control promoter light, run 1, well b = 1.03e5; uninduced reporter light, run 1, well a = 8265; inactive.

Laid out differently: 2 of the entries above
{"predicted target": "GluRIID (Glutamate receptor IID)", "dsRNA no.": 1, "induced reporter light, run 1, well a": 2.03e5, "induced reporter light, run 1, well b": 1.59e5, "control promoter light, run 1, well a": 1.97e5, "control promoter light, run 1, well b": 1.87e5, "uninduced reporter light, run 1, well a": 15160, "Call": "inactive"}
{"predicted target": "Pex23 (Peroxin 23)", "dsRNA no.": 1, "induced reporter light, run 1, well a": 1.30e5, "induced reporter light, run 1, well b": 1.66e5, "control promoter light, run 1, well a": 74510, "control promoter light, run 1, well b": 82655, "uninduced reporter light, run 1, well a": 11950, "Call": "inactive"}

Additional records follow.
Silencing of Ugt37E1 (UDP-glycosyltransferase family 37 member E1) resulted in: induced reporter light, run 1, well a = 1.35e5; induced reporter light, run 1, well b = 1.56e5; control promoter light, run 1, well a = 1.50e5; control promoter light, run 1, well b = 1.93e5; uninduced reporter light, run 1, well a = 12070; inactive.
Silencing of Madm (MLF1-adaptor molecule) resulted in: induced reporter light, run 1, well a = 1.06e5; induced reporter light, run 1, well b = 88885; control promoter light, run 1, well a = 64780; control promoter light, run 1, well b = 48520; uninduced reporter light, run 1, well a = 6392; inactive.
With knock-down of ena (enabled) #1, the record shows induced reporter light, run 1, well a = 1.20e5; induced reporter light, run 1, well b = 1.12e5; control promoter light, run 1, well a = 1.42e5; control promoter light, run 1, well b = 1.09e5; uninduced reporter light, run 1, well a = 8525; inactive.
ena (enabled) #2 gave induced reporter light, run 1, well a = 77900; induced reporter light, run 1, well b = 76195; control promoter light, run 1, well a = 1.23e5; control promoter light, run 1, well b = 1.71e5; uninduced reporter light, run 1, well a = 6640; inactive.
CG15572 scored induced reporter light, run 1, well a = 1.36e5; induced reporter light, run 1, well b = 1.04e5; control promoter light, run 1, well a = 2.19e5; control promoter light, run 1, well b = 2.44e5; uninduced reporter light, run 1, well a = 10560; inactive.
Against nuf (nuclear fallout) the deposit lists induced reporter light, run 1, well a = 1.81e5; induced reporter light, run 1, well b = 1.56e5; control promoter light, run 1, well a = 2.40e5; control promoter light, run 1, well b = 2.16e5; uninduced reporter light, run 1, well a = 8645; inactive.
Knock-down of Ccdc58 (Coiled-coil domain-containing 58) came out at: induced reporter light, run 1, well a = 1.44e5; induced reporter light, run 1, well b = 1.72e5; control promoter light, run 1, well a = 67575; control promoter light, run 1, well b = 99530; uninduced reporter light, run 1, well a = 10690; inactive.
CG18586 showed induced reporter light, run 1, well a = 2.62e5; induced reporter light, run 1, well b = 1.83e5; control promoter light, run 1, well a = 2.39e5; control promoter light, run 1, well b = 2.61e5; uninduced reporter light, run 1, well a = 13250; inactive.
Knock-down of Ada1-1 + Ada1-2 #1 gave: induced reporter light, run 1, well a = 93125; induced reporter light, run 1, well b = 1.03e5; control promoter light, run 1, well a = 1.32e5; control promoter light, run 1, well b = 1.20e5; uninduced reporter light, run 1, well a = 9650; inactive.
Ada1-1 + Ada1-2 #2 showed induced reporter light, run 1, well a = 74130; induced reporter light, run 1, well b = 57875; control promoter light, run 1, well a = 59640; control promoter light, run 1, well b = 63470; uninduced reporter light, run 1, well a = 7475; inactive.
